# The other results are listed elsewhere or left out.
# B1: PX14343C-bfa-541-26-541 (Bacteroides fragilis) (protein)
# chain: KAPLDEIADDSFWSDETLVKYYVNDLYSEISVDGLQLQENRSDNSVSAQRDKYRASWFKFNYDMVSASDPQDDDVWEDYYVKVRKCNRFFERIGTSTIEESEKSRLTGEVHFLRAMFYFEMVKRYGGVILLDKVLTMEDNWEIPRSSEKECYDFILEDLKKATEMLPASYGSREKGRATKGAAYALKSRVELYDKRYEDVIKSCAEVYKLGYELVDGTTPEKYRSIWWTTNKDNKEIIFDVQYKSPDVYNNMMVCNMVTYINDKYGDRGWGGLGPTQELIDAFEMADGTPATQYSQAPADQVFDINTCGIYEGREPRFYANIVFHGSQIFFNADKGAVTVDRYLMDTPDKGDGSLTGYNVWKWIDYDNYNYPYAGAGSPDFSTNWIILRYAEIYLNDAEARLETGDVEGARKAVNMIRQRVGLPDLTESDPEKLRELIRKERRIEFAFEEQRFYDVRRWKIGPETQTTLHGVRFVSPTEFKVTKTDIRTWNDRLYLTPVPHDEIVRSSVLKQNLGY
# How the values were obtained:
# Experiment in all cases: glycan array binding signal (z-score within array); higher = stronger binding
# Settings in all cases: glycan notation: IUPAC condensed, linker removed
# [1] = target: Fuc(a1-2)[Gal(a1-3)]Gal(b1-4)GlcNAc(b1-2)Man(a1-3)[Fuc(a1-2)[Gal(a1-3)]Gal(b1-4)GlcNAc(b1-2)Man(a1-6)]Man(b1-4)GlcNAc(b1-4)[Fuc(a1-6)]GlcNAc
# Procedure, shortened: (§1)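 Arrays were curated from the Consortium for Functional Glycomics database, 3228 in total, and kept only where the protein sequence was available. Binding is expressed as a within-array Z-score. This score was averaged across arrays of the same protein sequence at different concentrations or buffers and across linkers, and negative values can be read as non-binding.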
# [2] = target: Fuc(a1-2)[Gal(a1-3)]Gal(b1-4)GlcNAc(b1-3)GalNAc
# Procedure, shortened: as §1
# [3] = target: Fuc(a1-2)[Gal(a1-3)]Gal(b1-4)GlcNAc(b1-3)[Fuc(a1-2)[Gal(a1-3)]Gal(b1-4)GlcNAc(b1-6)]GalNAc
# Procedure, shortened: as §1
# [4] = target: Fuc(a1-2)[Gal(a1-3)]Gal(b1-4)GlcNAc(b1-6)GalNAc
# Procedure, shortened: as §1
# [5] = target: Fuc(a1-2)[Gal(a1-3)]Gal(b1-4)[Fuc(a1-3)]Glc
# Procedure, shortened: as §1
# [6] = target: Fuc(a1-2)[Gal(a1-3)]Gal(b1-4)[Fuc(a1-3)]GlcNAc
# Procedure, shortened: as §1
# [7] = target: Fuc(a1-2)[Gal(a1-3)]Gal(b1-4)[Fuc(a1-3)]GlcNAc(b1-3)GalNAc
# Procedure, shortened: as §1
# [8] = target: Fuc(a1-2)[Gal(a1-4)]Gal(b1-4)GlcNAc
# Procedure, shortened: as §1
# [9] = target: Fuc(a1-2)[GalNAc(a1-3)]Gal
# Procedure, shortened: as §1
# [10] = target: Fuc(a1-2)[GalNAc(a1-3)]Gal(b1-3)GalNAc(a1-3)[Fuc(a1-2)]Gal(b1-4)GlcNAc
# Procedure, shortened: as §1
# [11] = target: Fuc(a1-2)[GalNAc(a1-3)]Gal(b1-3)GalNAc(b1-3)Gal(a1-4)Gal(b1-4)Glc
# Procedure, shortened: as §1
# [12] = target: Fuc(a1-2)[GalNAc(a1-3)]Gal(b1-3)GlcNAc
# Procedure, shortened: as §1
# [13] = target: Fuc(a1-2)[GalNAc(a1-3)]Gal(b1-3)GlcNAc(b1-2)Man(a1-3)[Fuc(a1-2)[GalNAc(a1-3)]Gal(b1-3)GlcNAc(b1-2)Man(a1-6)]Man(b1-4)GlcNAc(b1-4)GlcNAc
# Procedure, shortened: as §1
# [14] = target: Fuc(a1-2)[GalNAc(a1-3)]Gal(b1-3)GlcNAc(b1-2)Man(a1-3)[Fuc(a1-2)[GalNAc(a1-3)]Gal(b1-3)GlcNAc(b1-2)Man(a1-6)]Man(b1-4)GlcNAc(b1-4)[Fuc(a1-6)]GlcNAc
# Procedure, shortened: as §1
# [15] = target: Fuc(a1-2)[GalNAc(a1-3)]Gal(b1-3)GlcNAc(b1-3)GalNAc
# Procedure, shortened: as §1
# [16] = target: Fuc(a1-2)[GalNAc(a1-3)]Gal(b1-3)GlcNAc(b1-6)GalNAc
# Procedure, shortened: as §1
# [17] = target: Fuc(a1-2)[GalNAc(a1-3)]Gal(b1-4)Glc
# Procedure, shortened: as §1
# [18] = target: Fuc(a1-2)[GalNAc(a1-3)]Gal(b1-4)GlcNAc
# Procedure, shortened: as §1
# [19] = target: Fuc(a1-2)[GalNAc(a1-3)]Gal(b1-4)GlcNAc(b1-2)Man
# Procedure, shortened: as §1
# [20] = target: Fuc(a1-2)[GalNAc(a1-3)]Gal(b1-4)GlcNAc(b1-2)Man(a1-3)[Fuc(a1-2)[GalNAc(a1-3)]Gal(b1-4)GlcNAc(b1-2)Man(a1-6)]Man(b1-4)GlcNAc(b1-4)GlcNAc
# Procedure, shortened: as §1
# [21] = target: Fuc(a1-2)[GalNAc(a1-3)]Gal(b1-4)GlcNAc(b1-2)Man(a1-3)[Fuc(a1-2)[GalNAc(a1-3)]Gal(b1-4)GlcNAc(b1-2)Man(a1-6)]Man(b1-4)GlcNAc(b1-4)[Fuc(a1-6)]GlcNAc
# Procedure, shortened: as §1
# [22] = target: Fuc(a1-2)[GalNAc(a1-3)]Gal(b1-4)GlcNAc(b1-3)Gal(b1-4)GlcNAc
# Procedure, shortened: as §1
# [23] = target: Fuc(a1-2)[GalNAc(a1-3)]Gal(b1-4)GlcNAc(b1-3)Gal(b1-4)GlcNAc(b1-3)Gal(b1-4)GlcNAc
# Procedure, shortened: as §1
# [24] = target: Fuc(a1-2)[GalNAc(a1-3)]Gal(b1-4)GlcNAc(b1-3)GalNAc
# Procedure, shortened: as §1
# [25] = target: Fuc(a1-2)[GalNAc(a1-3)]Gal(b1-4)GlcNAc(b1-3)[Fuc(a1-2)[GalNAc(a1-3)]Gal(b1-4)GlcNAc(b1-6)]GalNAc
# Procedure, shortened: as §1
# [26] = target: Fuc(a1-2)[GalNAc(a1-3)]Gal(b1-4)GlcNAc(b1-6)GalNAc
# Procedure, shortened: as §1
# [27] = target: Fuc(a1-2)[GalNAc(a1-3)]Gal(b1-4)[Fuc(a1-3)]GlcNAc
# Procedure, shortened: as §1
# [28] = target: Fuc(a1-2)[GalNAc(a1-3)]Gal(b1-4)[Fuc(a1-3)]GlcNAc(b1-3)GalNAc
# Procedure, shortened: as §1
# [29] = target: Fuc(a1-2)[GalNAc(a1-4)]Gal(b1-4)GlcNAc
# Procedure, shortened: as §1
# [30] = target: Fuc(a1-2)[GalNAc(b1-3)]Gal
# Procedure, shortened: as §1
# [31] = target: Fuc(a1-3)GlcNAc
# Procedure, shortened: as §1
# [32] = target: Fuc(a1-3)[Gal(b1-4)]Glc6S
# Procedure, shortened: as §1
# [33] = target: Fuc(a1-3)[Gal(b1-4)]GlcNAc
# Procedure, shortened: as §1
# [34] = target: Fuc(a1-3)[Gal(b1-4)]GlcNAc(b1-2)Man
# Procedure, shortened: as §1
# [35] = target: Fuc(a1-3)[Gal(b1-4)]GlcNAc(b1-2)Man(a1-3)[Fuc(a1-3)[Gal(b1-4)]GlcNAc(b1-2)Man(a1-6)]Man(b1-4)GlcNAc(b1-4)GlcNAc
# Procedure, shortened: as §1
# [36] = target: Fuc(a1-3)[Gal(b1-4)]GlcNAc(b1-2)Man(a1-3)[Fuc(a1-3)[Gal(b1-4)]GlcNAc(b1-2)Man(a1-6)]Man(b1-4)GlcNAc(b1-4)[Fuc(a1-6)]GlcNAc
# Procedure, shortened: as §1
# [37] = target: Fuc(a1-3)[Gal(b1-4)]GlcNAc(b1-3)Gal(b1-3)[Fuc(a1-4)]GlcNAc
# Procedure, shortened: as §1
binder,measurement,setting,value
B1,glycan array binding signal (z-score),[1],0.027
same,glycan array binding signal (z-score),[2],-0.339
same,glycan array binding signal (z-score),[3],-0.154
same,glycan array binding signal (z-score),[4],0.018
same,glycan array binding signal (z-score),[5],-0.83
same,glycan array binding signal (z-score),[6],-0.327
same,glycan array binding signal (z-score),[7],0.311
same,glycan array binding signal (z-score),[8],0.174
same,glycan array binding signal (z-score),[9],-0.661
same,glycan array binding signal (z-score),[10],0.153
same,glycan array binding signal (z-score),[11],0.049
same,glycan array binding signal (z-score),[12],1.41
same,glycan array binding signal (z-score),[13],0.09
same,glycan array binding signal (z-score),[14],0.839
same,glycan array binding signal (z-score),[15],-0.56
same,glycan array binding signal (z-score),[16],0.051
same,glycan array binding signal (z-score),[17],0.571
same,glycan array binding signal (z-score),[18],-0.605
same,glycan array binding signal (z-score),[19],-0.738
same,glycan array binding signal (z-score),[20],2.15
same,glycan array binding signal (z-score),[21],0.339
same,glycan array binding signal (z-score),[22],0.379
same,glycan array binding signal (z-score),[23],0.368
same,glycan array binding signal (z-score),[24],0.855
same,glycan array binding signal (z-score),[25],-0.603
same,glycan array binding signal (z-score),[26],0.182
same,glycan array binding signal (z-score),[27],1.23
same,glycan array binding signal (z-score),[28],0.409
same,glycan array binding signal (z-score),[29],0.255
same,glycan array binding signal (z-score),[30],-1.08
same,glycan array binding signal (z-score),[31],-0.322
same,glycan array binding signal (z-score),[32],1.22
same,glycan array binding signal (z-score),[33],-0.203
same,glycan array binding signal (z-score),[34],-0.929
same,glycan array binding signal (z-score),[35],-0.236
same,glycan array binding signal (z-score),[36],0.223
same,glycan array binding signal (z-score),[37],-0.573

# Quoted at random: two records from the list
binder,measurement,setting,value
B1,glycan array binding signal (z-score),[29],0.255
same,glycan array binding signal (z-score),[36],0.223
